Assay: Compared complexation with the buffers (chelate + 69GaCl3 in 0.1M buffer pH4, ambient temperature, LC/MS)
Details: 69GaCl3 1.5 eq, AT

Molecule | time to complete complexation (chelate NOTA) [min] | time to complete complexation (chelate PCTA) [min] | Results (complexation of gallium by the chelate) (chelate NOTA) | Results (complexation of gallium by the chelate) (chelate PCTA)
O=C(O)O [carbonate] | < 15 | < 15 | – | –
O=C(O)CCC(=O)O [succinate] | < 15 | – | – | –
CC(O)C(=O)O (stereo not shown) [lactate] | < 15 | < 15 | – | –
phosphate | < 15 | – | Complete complexation | –
O=C(O)/C=C\C(=O)O [maleate] | < 15 | – | – | –
O=C1O[C@H]([C@@H](O)CO)C(O)=C1O [ascorbate] | < 15 | < 15 | – | –
citrate [reference compound] | – | – | A large amount of ligand, a small amount of complex | A large amount of ligand; a small amount of complex
O=C(O)C(O)C(O)C(=O)O (stereo not shown) [tartrate] | < 15 | – | – | –
